According to US5328840A, “Method for preparing targeted carrier erythrocytes” (The Research Foundation of the State University of New York, priority 1991, dated 1994):
“And” between values parts separate entries of the source, which are not always exact repeats. Equal values may be shown once. Part of at least one peptide drawing is inferred or uncertain, most often the ends. Where a SMILES comes first, the peptide text is derived from it.

Test system: platelet-fibrinogen interactions
Assay: Fibrinogen bead agglutination assay
Assay type: cell-based
Conditions: free peptide in solution; platelet-rich plasma; 4 minutes; values from 2 different experiments

SMILES: N=C(N)NCCC[C@H](NC(=O)CN)C(=O)NCC(=O)N[C@@H](CC(=O)O)C(=O)N[C@@H](Cc1ccccc1)C(N)=O [G1 -RGDF]
- Minimal Concentration Required to Prevent Complete Agglutination: 32 µM and 56 µM

SMILES: N=C(N)NCCC[C@H](NC(=O)CNC(=O)CNC(=O)CNC(=O)CNC(=O)CN)C(=O)NCC(=O)N[C@@H](CC(=O)O)C(=O)N[C@@H](Cc1ccccc1)C(N)=O [G5 -RGDF] (H-GGGGGRGDF-NH2)
- Minimal Concentration Required to Prevent Complete Agglutination: 63 µM and 113 µM

SMILES: N=C(N)NCCC[C@H](NC(=O)CNC(=O)CNC(=O)CNC(=O)CNC(=O)CNC(=O)CNC(=O)CNC(=O)CNC(=O)CN)C(=O)NCC(=O)N[C@@H](CC(=O)O)C(=O)N[C@@H](Cc1ccccc1)C(N)=O [G9 -RGDF] (H-GGGGGGGGGRGDF-NH2)
- Minimal Concentration Required to Prevent Complete Agglutination: 227 µM and 253 µM

SMILES: N=C(N)NCCC[C@H](NC(=O)CNC(=O)CNC(=O)CN)C(=O)NCC(=O)N[C@@H](CC(=O)O)C(=O)N[C@@H](Cc1ccccc1)C(N)=O [G3 -RGDF] (H-GGGRGDF-NH2)
- Minimal Concentration Required to Prevent Complete Agglutination: 32 µM and 56 µM

SMILES: N=C(N)NCCC[C@H](NC(=O)CNC(=O)CNC(=O)CNC(=O)CNC(=O)CNC(=O)CNC(=O)CN)C(=O)NCC(=O)N[C@@H](CC(=O)O)C(=O)N[C@@H](Cc1ccccc1)C(N)=O [G7 -RGDF] (H-GGGGGGGRGDF-NH2)
- Minimal Concentration Required to Prevent Complete Agglutination: 113 µM and 127 µM
